Experimental data from patent publication US20240317862A1.
Results are given in words; binding and its absence hold for the method and conditions named. A result given as binding can be weak or reduced; the word gives no strength.

Experiments:
[1] = target: Cynomolgus monkey B7-H3 protein (Sino Biological Inc. Beijing) (Cynomolgus monkey); assay: ELISA, plate coated with 0.1 µg/mL Cynomolgus monkey B7-H3, HRP-labeled antibody, OD 450/620 nm
[2] = target: Cynomolgus monkey B7-H3 protein (Sino Biological Inc. Beijing) (Cynomolgus monkey); assay: ELISA, plate coated with 0.1 µg/mL Cynomolgus monkey B7-H3, HRP-labeled antibody

binding [1]	binding [2]	Binder
binds	binds	murine monoclonal antibody mAb152 (antibody, V domains shown) VH: QVQLQQPGAELVRPGASVKLSCKASGYTFTAYWMNWVKQRPDQGLEWIGRIDPYDSETRYNQNFRDKARLTVDKSSSTAYMQLSSLTSEDSAVFYCARGVRIFDYWGQGTTLTVSS VL: DIQMTQSPASLAASVGETVTITCRTSENIDYTLAWYQQKPGKSPQLLIYNANTLEDGVPSRFSGSGSGTHFSLKINSMQPEDTATYFCKQAYDVPRTFGGGTKLEIK
binds	binds	murine monoclonal antibody mAb272 (antibody, V domains shown) VH: QVQLQQPGAELVRPGASVKLSCKASGYTFTAYWMNWVKQRPDQGLEWIGRIDPYDSETRYNQNFRDKARLTVDKSSSTAYMQLSSLTSEDSAVFYCARGVRIFDYWGQGTTLTVSS VL: DIQMTQSPASLAASVGETVTITCRTSENIDYTLAWYQQKPGKSPQLLIYNANTLEDGVPSRFSGSGSGTLFSLKINNMQPEDTATYFCKQAYDVPRTFGGGTKLEIK
